# Results as given in PubChem BioAssay (NCATS).
# Chains of the proteins cited; added tags and fusions are not shown. Lines headed by an entry give the natural chain unless they say otherwise; changes in a name come on top.
# UniProt Q8WZA2: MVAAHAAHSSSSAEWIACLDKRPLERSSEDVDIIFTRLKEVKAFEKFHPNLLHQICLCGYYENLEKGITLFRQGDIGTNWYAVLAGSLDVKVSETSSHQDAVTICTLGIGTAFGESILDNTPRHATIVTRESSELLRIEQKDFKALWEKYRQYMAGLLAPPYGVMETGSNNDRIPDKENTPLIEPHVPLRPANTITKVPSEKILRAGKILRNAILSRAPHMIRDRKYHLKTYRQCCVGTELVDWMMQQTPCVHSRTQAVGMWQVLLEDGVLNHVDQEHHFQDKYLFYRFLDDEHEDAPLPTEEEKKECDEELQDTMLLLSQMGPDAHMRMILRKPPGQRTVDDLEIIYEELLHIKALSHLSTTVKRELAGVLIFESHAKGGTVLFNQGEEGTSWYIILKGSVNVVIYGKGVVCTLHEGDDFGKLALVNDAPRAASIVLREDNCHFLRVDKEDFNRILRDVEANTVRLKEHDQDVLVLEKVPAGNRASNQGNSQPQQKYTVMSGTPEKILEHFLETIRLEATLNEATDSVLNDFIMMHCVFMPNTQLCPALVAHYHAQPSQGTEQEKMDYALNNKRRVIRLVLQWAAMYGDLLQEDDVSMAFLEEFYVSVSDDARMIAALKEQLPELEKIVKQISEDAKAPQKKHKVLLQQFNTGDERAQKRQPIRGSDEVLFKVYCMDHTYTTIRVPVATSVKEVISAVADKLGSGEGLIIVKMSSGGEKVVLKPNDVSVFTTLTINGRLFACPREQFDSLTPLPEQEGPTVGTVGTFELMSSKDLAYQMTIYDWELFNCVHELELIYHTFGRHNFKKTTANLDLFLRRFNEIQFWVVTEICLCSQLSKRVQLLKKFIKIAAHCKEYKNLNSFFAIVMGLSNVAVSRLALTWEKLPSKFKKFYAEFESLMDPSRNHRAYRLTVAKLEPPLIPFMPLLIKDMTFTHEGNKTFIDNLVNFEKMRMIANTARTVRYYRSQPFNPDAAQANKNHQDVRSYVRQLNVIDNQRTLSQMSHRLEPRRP
# UniProt P05177, whole entry, looked up: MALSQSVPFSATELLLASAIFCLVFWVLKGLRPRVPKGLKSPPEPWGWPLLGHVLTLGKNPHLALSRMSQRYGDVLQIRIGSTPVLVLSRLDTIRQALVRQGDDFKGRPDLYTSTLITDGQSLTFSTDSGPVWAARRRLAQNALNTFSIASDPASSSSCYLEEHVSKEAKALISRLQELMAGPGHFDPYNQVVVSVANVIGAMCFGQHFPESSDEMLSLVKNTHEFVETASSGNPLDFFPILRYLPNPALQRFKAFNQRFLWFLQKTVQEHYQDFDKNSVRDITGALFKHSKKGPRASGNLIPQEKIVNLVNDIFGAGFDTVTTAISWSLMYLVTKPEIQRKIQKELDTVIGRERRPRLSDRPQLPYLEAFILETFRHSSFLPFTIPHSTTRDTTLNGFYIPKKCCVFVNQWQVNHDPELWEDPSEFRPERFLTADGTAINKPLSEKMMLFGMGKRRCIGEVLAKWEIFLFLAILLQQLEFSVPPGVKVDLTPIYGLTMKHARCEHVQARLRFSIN
# UniProt P08482: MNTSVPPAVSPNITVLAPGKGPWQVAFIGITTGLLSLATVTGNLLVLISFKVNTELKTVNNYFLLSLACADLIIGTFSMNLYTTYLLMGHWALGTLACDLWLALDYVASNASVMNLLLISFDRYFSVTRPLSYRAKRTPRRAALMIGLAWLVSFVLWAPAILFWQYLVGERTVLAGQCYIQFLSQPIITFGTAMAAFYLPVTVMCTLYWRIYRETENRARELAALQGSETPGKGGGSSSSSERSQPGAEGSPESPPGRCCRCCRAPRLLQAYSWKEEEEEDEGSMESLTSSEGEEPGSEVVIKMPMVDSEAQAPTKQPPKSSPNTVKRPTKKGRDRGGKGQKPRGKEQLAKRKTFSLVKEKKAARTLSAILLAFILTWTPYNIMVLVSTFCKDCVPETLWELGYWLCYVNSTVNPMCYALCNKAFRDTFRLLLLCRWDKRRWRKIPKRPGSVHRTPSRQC
# UniProt O94782: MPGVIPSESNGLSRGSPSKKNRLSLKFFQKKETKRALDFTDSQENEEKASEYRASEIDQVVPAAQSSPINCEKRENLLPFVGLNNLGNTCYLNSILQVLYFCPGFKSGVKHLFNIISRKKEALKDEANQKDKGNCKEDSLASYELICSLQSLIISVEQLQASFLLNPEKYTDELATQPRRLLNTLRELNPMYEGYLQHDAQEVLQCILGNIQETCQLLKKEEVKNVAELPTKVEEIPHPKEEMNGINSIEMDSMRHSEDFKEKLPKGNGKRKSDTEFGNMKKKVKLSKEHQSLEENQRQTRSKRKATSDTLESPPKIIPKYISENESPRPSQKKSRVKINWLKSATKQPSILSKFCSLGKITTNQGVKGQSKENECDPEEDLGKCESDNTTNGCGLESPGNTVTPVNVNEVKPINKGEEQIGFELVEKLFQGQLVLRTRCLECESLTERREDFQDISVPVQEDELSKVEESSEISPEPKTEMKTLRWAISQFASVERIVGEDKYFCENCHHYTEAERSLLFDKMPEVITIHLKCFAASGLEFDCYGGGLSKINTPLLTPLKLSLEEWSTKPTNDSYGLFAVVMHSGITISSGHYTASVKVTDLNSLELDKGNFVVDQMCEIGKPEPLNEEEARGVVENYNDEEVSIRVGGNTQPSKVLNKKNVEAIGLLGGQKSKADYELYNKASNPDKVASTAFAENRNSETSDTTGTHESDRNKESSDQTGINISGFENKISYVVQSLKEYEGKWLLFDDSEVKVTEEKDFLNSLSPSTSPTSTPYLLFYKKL
# Where “and” joins values, the source holds several entries; their conditions need not be identical. Identical values can stand only once. The inconclusive results got no clear call from the source; some entries with a clear call stand among them for comparison. For some of these results: A potency beside an inconclusive call is a rough fit, not a confirmed value. Calls of active or inactive are those of the source. Unless noted, the call rests on the fitted dose curve; in most records, active means well fitted curve in the direction sought with a large enough effect; inconclusive means small, poorly fitted or top-dose-only effect, or another doubt; inactive means no such curve, though single readings can be large; an effect the other way counts as inactive or inconclusive.
# Tests used:
# [1] = biological target: Rap guanine nucleotide exchange factor 4 (Homo sapiens) (UniProt Q8WZA2); assay: Confirmatory qHTS for agonist of cAMP-regulated guanine nucleotide exchange factor 4 (EPAC2) (AID 1645884);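 further: nucleotide exchange releases bodipy-GDP from Rap1 and this lowers its fluorescence; nearly all actives have a fitted effect of over 65% in size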; further: potency means the concentration at half of the fitted maximal effect; on activation: on the % scale 0 is the no-effect control and ±100 the full control effect
# [2] = biological target: Rap guanine nucleotide exchange factor 4 (Homo sapiens) (UniProt Q8WZA2); assay: Confirmatory qHTS for antagonist of cAMP-regulated guanine nucleotide exchange factor 4 (EPAC2) (AID 1645885); details: activity change, negative = inhibition: at 12.7 µM (top of the series) unless noted; further: nearly all actives have a fitted effect of over 25% in size; further: potency means the concentration at half of the fitted maximal effect; on activity change, negative = inhibition: on the % scale 0 is the no-effect control and ±100 the full control effect
# [3] = biological target: Rap guanine nucleotide exchange factor 3 (Homo sapiens) (UniProt O95398); assay: Counterscreen qHTS for agonist of cAMP-regulated guanine nucleotide exchange factor 3 (EPAC1) (AID 1645889); details: EPAC1 Rap1B-BODIPY-GDP exchange, fluorescence; activation: at 154 µM (top of the series) unless noted; further: nearly all actives have a fitted effect of over 40% in size; further: potency means the concentration at half of the fitted maximal effect; on activation: % of control where 0% means no effect
# How it was run: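 Rap1B–BODIPY-GDP (250 nM) with 50 uM GDP; compounds pin-transferred to 9.74 nM–152 uM final (activator) or from 7.32 nM upwards (inhibitor). Fluorescence Ex/Em 480/540 nm read at 5 and 30 min, then after adding cAMP or buffer, at room temperature.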
# [4] = biological target: Cytochrome P450 1A2 (Homo sapiens) (UniProt P05177); assay: p450-cyp1a2 (AID 410; calls by dose curve; further: potency means the concentration at half of the fitted maximal effect)
# How it was run: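 Inhibition was calculated relative to 57 uM furafylline (full inhibition). The reaction used human CYP1A2 at 20nM with Luciferin-ME at its Km, 100uM, driven by an NADPH-regenerating system for 60 min at room temperature.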
# [5] = biological target: Mitogen-activated protein kinase 10 (Mus musculus) (UniProt Q61831); assay: JNK3 AlphaScreen Assay (AID 530; active means well fitted curve in either direction with a large enough effect, not every such curve was filed as active; inconclusive means small, poorly fitted or top-dose-only effect, or another doubt;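 further: kinase came from lysate of stimulated human HepG2 cells; potency means the concentration at half of the fitted maximal effect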); details: JNK3 lysate, c-Jun phosphorylation; activity change, negative = inhibition: at 57.1 µM (top of the series)
# How it was run: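 qHTS format: compounds tested as titrations against IL-1beta/TNF-alpha-activated HepG2 lysate JNK3 with biotin-GST-cJun substrate and 10 uM ATP at room temperature. Loss of anti-phospho-cJun AlphaScreen signal indicates inhibition.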
# [6] = qHTS Assay for Identification of Small Molecule Antagonists for NFkB Signaling Pathway (AID 895; active means well fitted inhibition curve with a large enough effect in the signal ratio, with a control signal flat, not every such curve was filed as active; inconclusive means small, poorly fitted or top-dose-only effect, or effect the other way, or a change in a side signal; the % refers to the signal ratio; further: potency means the concentration at half of the fitted maximal effect); details: NFkB beta-lactamase reporter cells, FRET ratio 460/530, stimulated with 10 pM TNF alpha; activity change, negative = inhibition: at 38.3 µM (top of the series)
# How it was run: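 ME-180 NFkB-bla cells (beta-lactamase under NFkB response element), plated overnight, treated with compound then 10 pM TNF alpha (about EC50) for 5 hrs at 37 C. LiveBLAzer FRET read at 460/530 nm emission, 405 nm excitation.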
# [7] = qHTS Assay for Identification of Small Molecule Agonists for Hypoxia Response Element Signaling Pathway (AID 914; active means well fitted activation curve with a large enough effect in the signal ratio, with a control signal flat, not every such curve was filed as active; inconclusive means small, poorly fitted or top-dose-only effect, or effect the other way, or a change in a side signal; the % refers to the signal ratio; further: potency means the concentration at half of the fitted maximal effect); details: ME-180 (cervical carcinoma) HRE-bla reporter, beta-lactamase ratio, CoCl2, 17 h; activation: stronger effect = higher value
# How it was run: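 HRE-bla ME-180 assay for agonist-like enhancement of an EC50 CoCl2 stimulus: 17 h at 37 degrees Celsius, CCF4 for 2.5 h, ratiometric 460/530 nm signal converted to %Activity and fitted to AC50.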
# [8] = qHTS Assay for Identification of Small Molecule Antagonists for Thrombopoietin (TPO) Signaling Pathway (AID 918); details: TPO-dependent cell signaling reporter, antagonist mode; activity change, negative = inhibition: at 38.5 µM (top of the series)
# How it was run: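 First, Ba/F3 reporter cells expressing human TPO receptor were held overnight without IL-3. Next, compound and 26 pM TPO were added. After 24 hrs incubation at 37 C, luciferase luminescence under the Glycoprotein IIb promoter was recorded.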
# [9] = biological target: Muscarinic acetylcholine receptor M1 (Rattus norvegicus) (UniProt P08482); assay: qHTS Assay for Antagonists of Acetylcholine Muscarinic M1 Receptor: Kinetic Measurement of Intracellular Calcium Response (AID 943);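 further: Fluo-4 calcium signal as peak divided by basal fluorescence over 4 min; nearly all actives have a fitted effect of over 75% in size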
# How it was run: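 Intracellular calcium flux, recorded with Fluo-4 in a kinetic plate reader, served as signal; the response to carbachol at EC80 (100 nM final) was taken as maximal over minimal fluorescence after a 10 min compound pre-incubation in rat M1-CHO cells.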
# [10] = biological target: Ubiquitin carboxyl-terminal hydrolase 1 (Homo sapiens) (UniProt O94782); assay: Inhibitors of USP1/UAF1: Pilot qHTS (AID 504865); further: potency means the concentration at half of the fitted maximal effect; nearly all actives have a fitted effect of over 35% in size
# How it was run: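 USP1/UAF1 complex (1nM) preincubated with compound 15 min at room temperature, then Ub-Rho substrate (150nM final) added. Fluorescence read kinetically at 480/540 nm, 6 reads every 60 seconds. Buffer: 50mM HEPES pH 7.8, 0.5mM EDTA, 0.1 mg/ml BSA, 1mM TCEP, 0.01% Tween-20.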
structure (smiles),measurement,setting,value
COc1ccc2ccc3c(c2c1)N=C[C@]1(O3)N(C)c2ccccc2C1(C)C,Potency,[1],"inconclusive: 126 µM [activator, partial curve, poor fit]"
same,Potency,[2],"inconclusive: 60.1 µM [inhibitor, partial curve, poor fit]"
same,Potency,[3],"inconclusive: 2.82 µM [activator, full curve, poor fit]"
CCCCCCOC(=O)C(C#N)c1nc2ccccc2nc1N1CCCCC1 (stereo not drawn),Potency,[1],"inconclusive: 126 µM [activator, partial curve, poor fit]"
same,activation,[3],inconclusive: 23% [activator]
Cc1ccc(S(=O)(=O)Nc2ccccc2C(=O)Nc2nc(-c3ccc(F)cc3)cs2)cc1,Potency,[1],inactive
same,Potency,[2],"inconclusive: 19 µM [inhibitor, full curve]"
same,Potency,[3],"inconclusive: 14.1 µM [activator, partial curve]"
CC(=O)c1ccccc1NC(=O)COC(=O)CSCC(=O)Nc1cc(C)on1,Potency,[1],"inconclusive: 112 µM [activator, single point]"
same,Potency,[2],inactive
same,activation,[3],inconclusive: 33.5% [activator]
COC(=O)c1ccccc1NC(=O)CN1C(=O)COc2ccc(Cl)cc21,Potency,[1],inactive
same,Potency,[3],inactive
O=C(CCn1c(=O)oc2ccccc21)N(Cc1ccccc1)c1ccccc1,Potency,[1],"inconclusive: 126 µM [activator, partial curve, poor fit]"
same,Potency,[3],"inconclusive: 0.251 µM [activator, full curve, poor fit]"
CNc1snc(C)c1C(=O)OCC(=O)Nc1ccc(C)cc1F,Potency,[1],"inconclusive: 44.7 µM [activator, partial curve, poor fit]"
same,Potency,[2],"inconclusive: 95.3 µM [inhibitor, single point]"
same,Potency,[3],inactive
C[C@@H](/C=C\c1cccc(Oc2ccc(F)cc2)c1)N(O)C(N)=O,Potency,[4],active: 1 µM and active: 158 nM
same,Potency,[5],"inconclusive: 0.501 µM [activator, full curve, poor fit]"
same,Potency,[6],"inconclusive: 5.01 µM [inhibitor, full curve, poor fit]"
same,Potency,[7],"inconclusive: 25.1 µM [inhibitor, partial curve, poor fit]"
same,"activity change, negative = inhibition",[8],inconclusive: 9.67% [phenotype inactive]
same,Potency,[9],inactive
same,Potency,[10],"inconclusive: 44.7 µM [inhibitor, partial curve]"
same,Potency,[1],"inconclusive: 12.6 µM [activator, full curve]"
same,Potency,[2],active: 44.1 µM
COc1ccc(-c2nc3ccccc3n2Cc2ccccc2)cc1,Potency,[1],"inconclusive: 50.1 µM [activator, single point]"
same,Potency,[3],"inconclusive: 12.6 µM [activator, full curve, poor fit]"
COc1ccc(NC(=O)CN(C)C(=O)c2cn(-c3ccccc3)nc2-c2cccnc2)cc1,Potency,[1],"inconclusive: 112 µM [activator, partial curve, poor fit]"
same,activation,[3],inconclusive: 35.7% [activator]
O=c1onc(-c2ccccc2)n1-c1cc(Cl)cc(Cl)c1,Potency,[1],"inconclusive: 112 µM [activator, partial curve, poor fit]"
same,Potency,[3],inactive
CCOC(=O)c1c(C)nc2sc(C(N)=O)c(N)c2c1-c1ccccc1,activation,[1],"inactive: -0.736% [at 17.1 µM, percent relative to cAMP agonist control]"
same,Potency,[3],"inconclusive: 0.126 µM [activator, full curve, poor fit]"
CCOc1ccccc1NC(=O)c1ccccc1-c1ccccc1,Potency,[1],"inconclusive: 100 µM [activator, partial curve]"
same,activation,[3],inconclusive: 50.7% [activator]
CC(=O)c1cccc(NC(=O)Cn2cc(C(=O)c3cccc(Cl)c3)c(=O)c3ccc(C)nc32)c1,Potency,[1],"inconclusive: 31.6 µM [activator, partial curve, poor fit]"
same,Potency,[3],"inconclusive: 11.2 µM [activator, partial curve]"
COc1ccc(C(=O)Nc2ccc(NC(=O)c3cccs3)cc2)cc1OC,Potency,[1],"inconclusive: 50.1 µM [activator, partial curve, poor fit]"
same,Potency,[3],inactive
Cc1ccc(CNc2cc(C)nc3nc(-c4ccc(C)cc4)nn23)cc1,Potency,[1],"inconclusive: 44.7 µM [activator, partial curve, poor fit]"
same,activation,[3],inconclusive: 33.3% [activator]
